Assay results as given in article PMC6753076.
These are yes or no findings as the source states them, for the method shown. In cells and extracts the contact can be indirect. Some binding calls cover weakened binding; strength is not graded here. For some assays here: Where a sequence is shown, tags or fusion partners need not be part of it. One block for each substance: values may come before it.

Amino acid sequences for entries named in this document (tags omitted). A change or cut given only in a name is not applied to a line headed by its entry.
UniProt P49429: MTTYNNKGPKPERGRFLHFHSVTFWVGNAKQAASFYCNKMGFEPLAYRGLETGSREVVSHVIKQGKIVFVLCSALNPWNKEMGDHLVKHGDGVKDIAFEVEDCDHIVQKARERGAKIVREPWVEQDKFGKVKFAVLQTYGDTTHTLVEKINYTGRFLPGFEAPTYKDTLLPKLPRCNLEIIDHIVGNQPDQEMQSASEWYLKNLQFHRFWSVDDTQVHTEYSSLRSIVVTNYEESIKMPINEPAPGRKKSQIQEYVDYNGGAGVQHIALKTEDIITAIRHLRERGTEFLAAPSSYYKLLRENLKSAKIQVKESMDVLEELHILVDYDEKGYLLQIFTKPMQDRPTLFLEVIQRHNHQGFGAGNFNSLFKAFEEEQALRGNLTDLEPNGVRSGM
UniProt P32754: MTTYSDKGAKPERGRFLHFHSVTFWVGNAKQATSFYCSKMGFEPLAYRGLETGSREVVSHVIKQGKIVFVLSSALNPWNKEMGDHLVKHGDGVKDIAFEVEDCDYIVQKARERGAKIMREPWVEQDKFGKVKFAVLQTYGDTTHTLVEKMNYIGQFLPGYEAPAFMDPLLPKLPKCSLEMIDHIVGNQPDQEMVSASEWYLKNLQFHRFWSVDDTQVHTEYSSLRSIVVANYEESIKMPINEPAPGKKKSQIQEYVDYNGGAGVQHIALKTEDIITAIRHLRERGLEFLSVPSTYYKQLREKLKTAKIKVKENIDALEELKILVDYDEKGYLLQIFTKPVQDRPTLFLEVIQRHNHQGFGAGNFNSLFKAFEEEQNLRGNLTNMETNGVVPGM
UniProt Q924X7: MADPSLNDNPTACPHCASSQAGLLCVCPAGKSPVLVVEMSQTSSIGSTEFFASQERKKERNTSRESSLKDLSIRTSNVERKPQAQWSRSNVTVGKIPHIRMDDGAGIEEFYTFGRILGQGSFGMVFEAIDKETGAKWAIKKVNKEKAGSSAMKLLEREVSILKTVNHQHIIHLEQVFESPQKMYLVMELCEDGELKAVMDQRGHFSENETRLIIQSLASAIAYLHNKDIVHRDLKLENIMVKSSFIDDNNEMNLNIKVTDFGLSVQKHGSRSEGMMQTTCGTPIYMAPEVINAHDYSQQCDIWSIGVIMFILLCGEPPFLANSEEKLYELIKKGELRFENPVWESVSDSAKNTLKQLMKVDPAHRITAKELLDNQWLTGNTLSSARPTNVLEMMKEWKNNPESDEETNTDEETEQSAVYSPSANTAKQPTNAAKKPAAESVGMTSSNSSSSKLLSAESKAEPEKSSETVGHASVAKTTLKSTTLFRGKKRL
UniProt Q9BYT3: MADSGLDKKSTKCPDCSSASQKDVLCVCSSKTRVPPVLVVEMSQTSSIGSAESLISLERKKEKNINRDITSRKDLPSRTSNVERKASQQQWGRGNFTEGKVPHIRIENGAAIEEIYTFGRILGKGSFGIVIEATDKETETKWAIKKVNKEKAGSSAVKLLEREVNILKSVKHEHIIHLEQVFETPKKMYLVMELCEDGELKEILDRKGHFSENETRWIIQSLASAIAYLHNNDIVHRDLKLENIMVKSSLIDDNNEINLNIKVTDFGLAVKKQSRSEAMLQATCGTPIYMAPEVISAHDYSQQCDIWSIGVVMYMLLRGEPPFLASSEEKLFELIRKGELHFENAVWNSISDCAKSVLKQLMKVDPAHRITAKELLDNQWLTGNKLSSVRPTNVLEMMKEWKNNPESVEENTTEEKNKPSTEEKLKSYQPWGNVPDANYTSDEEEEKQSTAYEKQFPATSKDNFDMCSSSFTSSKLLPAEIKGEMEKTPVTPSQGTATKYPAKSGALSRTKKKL

Tests used:
[1] = biological target: T1, PELI1 E3 ubiquitin ligase, endogenous human (human (endogenous in HEK293T and LO2)) (UniProt Q96FA3); assay: co-IP; LO2 cells with Ttc36 shRNA#1, with or without RNAi-resistant TTC36; immunoprecipitation with an anti-PELI1 antibody; endogenous proteins
T1 sequence: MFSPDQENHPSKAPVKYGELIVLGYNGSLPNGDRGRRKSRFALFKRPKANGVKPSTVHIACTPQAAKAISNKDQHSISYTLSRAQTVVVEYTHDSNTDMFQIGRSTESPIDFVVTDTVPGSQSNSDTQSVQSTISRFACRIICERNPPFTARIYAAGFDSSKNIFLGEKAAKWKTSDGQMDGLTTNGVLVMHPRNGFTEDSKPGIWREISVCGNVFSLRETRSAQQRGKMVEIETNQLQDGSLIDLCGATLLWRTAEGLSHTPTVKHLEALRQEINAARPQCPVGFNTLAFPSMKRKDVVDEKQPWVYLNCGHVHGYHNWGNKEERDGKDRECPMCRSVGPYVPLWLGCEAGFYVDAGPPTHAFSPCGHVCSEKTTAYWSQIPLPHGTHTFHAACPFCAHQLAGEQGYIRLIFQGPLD

[2] = biological target: HPD, endogenous mouse (mouse (endogenous in primary hepatocytes)) (UniProt P49429); assay: co-IP; WT or Ttc36-/- mouse primary hepatocytes, MG-132 (10 μM) 12 h; immunoprecipitation with an anti-HPD antibody
[3] = biological target: T2, TTC36, endogenous mouse (mouse (endogenous in primary hepatocytes)) (UniProt Q8VBW8); assay: co-IP; lysates of primary hepatocytes of wild type and Ttc36-/- C57BL/6 mice; immunoprecipitation with an anti-TTC36 antibody; lysis buffer 50 mM Tris-HCl pH 7.5, 0.1% SDS, 1% Triton X-100, 150 mM NaCl; overnight at 4 °C
T2 sequence: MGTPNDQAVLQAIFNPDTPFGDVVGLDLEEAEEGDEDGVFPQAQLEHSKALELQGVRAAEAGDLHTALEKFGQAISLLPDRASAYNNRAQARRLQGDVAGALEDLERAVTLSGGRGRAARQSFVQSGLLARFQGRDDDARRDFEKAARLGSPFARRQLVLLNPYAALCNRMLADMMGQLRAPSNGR

[4] = biological target: 4-hydroxyphenylpyruvic acid dioxygenase (HPD), endogenous human (human (endogenous in HEK293T and LO2)) (UniProt P32754); assay: co-IP; LO2 cell lysates, immunoprecipitation with an anti-HPD antibody; also cells with Ttc36 shRNA or stably expressed Flag-TTC36
[5] = biological target: T3, Flag-PELI1 (CMV-Flag-Peli1), wild type (human) (UniProt Q96FA3); assay: co-IP; HEK293T transfected with the indicated plasmids; immunoprecipitation with an anti-Flag antibody
T3 sequence: T1 sequence

Substance: 4-hydroxyphenylpyruvic acid dioxygenase (HPD), endogenous human (from UniProt P32754 1-393)
binding [1]: binds

Substance: STK33, endogenous mouse (from UniProt Q924X7 1-491)
binding [2]: binds

Substance: HPD, endogenous mouse (from UniProt P49429 1-393)
binding [3]: binds

Second part, the substance after the results:

binding [4]: binds
Substance: serine/threonine kinase 33 (STK33), endogenous human (from UniProt Q9BYT3 1-514)

binding [5]: binds
Substance: His-HPD (pcDNA3.1-His/V5-Hpd), wild type (from UniProt P32754-1 1-393)
